For at least one compound, name, drawing or mass did not settle the structure.
Assay: Urine biomarkers of kidney injury after administration of 90 mg tin protoporphyrin
Type: in vivo, humans
Conditions: HVs, Day 1, mean ± 1 SD

With `C=Cc1c2[n-]c(c1C)/C=c1\[n-]/c(c(C)c1C=C)=C\c1[n-]c(c(CCC(=O)O)c1C)/C=c1\[n-]c(c(C)c1CCC(=O)O)=C2.[Sn+4]` [SnPP, tin protoporphyrin] the “urine NAG” value was 2.83 ± 1.167.5 mU/mg Cr.
